Experimental data: patent US7070814B2, “Bioavailability / bioefficacy enhancing activity of Cuminum cyminum and extracts and fractions thereof” (Council of Scientific and Industrial Research, priority 2002, dated 2006)

Assay: Bioavailability enhancement: drug, nutraceutical or herbal product given alone or with bioenhancer (BE) to fasted rats, blood (plasma) levels 0-24 hrs by HPLC
Protocol: • 1. Bioenhancers (BEs) from Cuminum cyminum means either the aqueous, or 50% alcoholic extract or fractions No. 1 to 5. • 2. Piperine as Bioenhancer (BE) from Piper species means the molecule with characteristics as described in Example 2 of this invention. • 3.
• (i) Bioenhancer (BE) from Cuminum cyminum • Extract: 16 mg/kg body weight (Rats) • Fraction No. 1: 02–5 mg/kg body weight (rats) • Fraction No.2: 13-mg/kg body weight (Rats) • Fraction No. 3: 8 mg/kg body weight (Rats) • Fraction No. 4: 5 mg/kg body weight (Rats) • Fraction No. 5: 2.5 to 5 mg/kg body weight (Rats) • (ii) Piperine: 8 mg/kg body weight (Rats) As an example of an experiment in Rat (fasted): • Drug: Rifampicin, 40 mg/kg • BE (Cuminum cyminum): Doses as in Example No. 5 above. • BE (Cuminum cyminum)+Piperine: Doses as in Example No. 5 above.
Experimental procedure: Drug alone/or in combination with BE was administered to rats as per the following design: • Group 1: Control • Group 2: Rifampicin alone • Group 3: BE alone • Group 4: Rifampicin+BE (Cuminum cyminum) • Group 5: Rifampicin+BE (C. cyminum+piperine)
Blood from control/treated animals at predetermined intervals (0–24 hrs) (Total 14 timings). […] The concentration of rifampicin in the samples was determined using HPLC (Model: Shimadzu 1080 BP); PDA detector; Mobile phase: phosphate buffer: acetonitile (40:60); Flow rate 1.0 ml/min. […]

CCn1cc(C(=O)O)c(=O)c2cc(F)c(N3CCN(C)CC3)cc21 [P-floxacin, Pefloxacin]
% Enhancement in bioavailability, BE from Cuminum cyminum (drug + BE from Cuminum cyminum (extract 16 mg/kg or fraction, rats) vs drug alone): 47%
% Enhancement in bioavailability, Piperine as BE (drug + piperine (8 mg/kg, rats) vs drug alone): 51%
